{
  "source": "paper PMC12024540",
  "about": "(Biomolecules, 2025)",
  "assay": "general procedure: peptide synthesis; Rink amide (0.70 mmol/g loading capacity)",
  "conditions": "whole synthesis",
  "note": "End groups of sequences in plain letters are not given here.",
  "data": [
    {"sequence": "NHQVEEQLEWLSQRA", "values": [
      {"measurement": "final HPLC purity", "value": ">99", "unit": "%"}
    ]}
  ]
}
